{"source": "PubChem BioAssay AID504467", "about": "(National Center for Advancing Translational Sciences (NCATS), 2011)", "note": "Among all 330,000 compounds or so, about 7,700 (2.3%) were called active. Inconclusive results, whose numbers are uncertain, are shown with a selection of clear calls. Calls come from the whole dose curve; as a rule, active = well fitted inhibition curve with a large enough effect; inconclusive = small, poorly fitted or top-dose-only effect, or effect the other way; inactive = flat fitted curve, though single readings scatter. Potencies beside an inconclusive call are fits to weak or partial responses and may not hold up. % is set by controls: 0 for no effect and ±100 for the full control effect; potency is the fitted concentration of half-maximal effect.", "data": [{"test": "qHTS screen for small molecules that inhibit ELG1-dependent DNA repair in human embryonic kidney (HEK293T) cells expressing luciferase-tagged ELG1; note: nearly all actives have a fitted effect of over 55% in size", "conditions": "HEK293T ELG1-luciferase reporter, luminescence, 16 h, DNA damage induced by 5-fluorouridine; activity change, negative = inhibition: at 46.1 µM (top of the series)", "in_short": "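5-Fluorouridine DNA damage + compound/DMSO, 2,000 cells/well, 16 h, 37 °C/5% CO2. ONE-Glo, 30 min RT, luminescence. Readout = decrease in reporter signal.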", "values": [{"smiles": "Cc1ccc(OCc2cc(C(=O)N3CC4C[C@@H]5CC3C[C@H](C4)C5)no2)cc1C", "Potency": "inconclusive: 9.2 µM [activator, partial curve]"}, {"smiles": "Cn1c(C(=O)OC(C(=O)NC2CCCCC2)c2ccccn2)cc2sccc21", "note": "(configuration not stated)", "Potency": "inconclusive: 25.9 µM [inhibitor, single point]"}, {"smiles": "Cn1c(N)c(C(=O)COC(=O)CCOc2ccc(C(C)(C)C)cc2)c(=O)n(C)c1=O", "activity change, negative = inhibition": "inactive: 11.3%"}, {"smiles": "COc1cccc(/C=N/NC(=O)c2cnn(-c3ccccc3)c2N)c1", "Potency": "inconclusive: 7.3 µM [activator, partial curve]"}, {"smiles": "CCOc1ccc(C(=O)N/N=C/c2cccc3cccnc23)cc1", "Potency": "inconclusive: 18.4 µM [inhibitor, single point]"}, {"smiles": "COc1ccccc1/C=N\\N=C(\\N)c1ccccn1", "Potency": "inconclusive: 9.2 µM [activator, partial curve]"}, {"smiles": "COc1cccc(-c2coc3c(C)c4oc(=O)c(CC(=O)O)c(C)c4cc23)c1", "activity change, negative = inhibition": "inactive: 11.3%"}, {"smiles": "COc1cccc(N(C(=O)Cn2nnc(-c3ccc(C)o3)n2)C(C(=O)NC2CCCC2)c2ccncc2)c1", "note": "(configuration not stated)", "Potency": "inconclusive: 10.3 µM [activator, single point]"}, {"smiles": "CC(CCc1ccccc1)NC(=O)N1CCOCC1", "note": "(configuration not stated)", "activity change, negative = inhibition": "inactive: 11.3%"}, {"smiles": "Cc1ccc(C(=O)N(C)CCOc2ccccc2)cc1S(=O)(=O)N1CCCCC1", "activity change, negative = inhibition": "inactive: -12%"}, {"smiles": "COc1ccc(OC2C(=O)N(c3ccc(C)c(C)c3)C2c2ccc(OC)c(OC)c2)cc1", "note": "(configuration not stated)", "Potency": "inconclusive: 18.4 µM [inhibitor, partial curve, poor fit]"}, {"smiles": "O=C(COC(=O)c1cnccn1)NCc1ccc2c(c1)OCO2", "activity change, negative = inhibition": "inactive: -2.82%"}, {"smiles": "C=CCn1c(NS(=O)(=O)c2ccccc2)c(S(=O)(=O)c2ccc(C)cc2)c2nc3ccccc3nc21", "Potency": "inconclusive: 32.6 µM [inhibitor, single point]"}, {"smiles": "CCC(Sc1ccc(Cl)cc1)C(=O)Nc1nnc(-c2cccc([N+](=O)[O-])c2)s1", "note": "(configuration not stated)", "Potency": "inconclusive: 25.9 µM [inhibitor, single point]"}, {"smiles": "CCNc1nc(SC(C)C(=O)Nc2ccccc2)nc(N(C)C)n1", "note": "(configuration not stated)", "Potency": "inconclusive: 18.3 µM [inhibitor, single point]"}, {"smiles": "O=S1(=O)CC(O)C(NCCO)C1", "note": "(configuration not stated)", "activity change, negative = inhibition": "inactive: 15.6%"}, {"smiles": "S=C(c1ccc(-c2cc(Cl)ccc2Cl)o1)N1CCOCC1", "activity change, negative = inhibition": "inactive: -13.2%"}, {"smiles": "Cc1ccc(NC(=O)CN2C(=O)NC(Cc3ccccc3)C2=O)c(Br)c1", "note": "(configuration not stated)", "activity change, negative = inhibition": "inactive: -6.02%"}, {"smiles": "COc1cc(C(=O)Nc2ccc(S(=O)(=O)N(C)c3ccccc3)cc2)cc(OC)c1OC", "Potency": "inconclusive: 18.4 µM [inhibitor, single point]"}, {"smiles": "O=c1[nH]c(=O)n(Cc2ccc(Oc3ccccc3)cc2)cc1Br", "activity change, negative = inhibition": "inactive: -5.43%"}, {"smiles": "CN(C)/C=C(/C#N)C(=O)c1cccc(Oc2ccc(C(C)(C)C)cc2)c1", "Potency": "inconclusive: 18.4 µM [inhibitor, partial curve, poor fit]"}, {"smiles": "CNC(=O)c1ccc(NC(=O)CC23CC4CC(CC(C4)C2)C3)cc1", "Potency": "active: 9.2 µM"}, {"smiles": "O=C(COC(=O)c1ccc(Br)o1)NCc1ccccc1Cl", "activity change, negative = inhibition": "inactive: 7.64%"}, {"smiles": "CCN(NC(=O)C(O)(c1ccc(F)cc1)c1ccc(F)cc1)C(=O)c1ccccc1", "activity change, negative = inhibition": "inactive: 1.75%"}, {"smiles": "Cc1ccc(-c2csc(N3CCN(CCCn4c(C(F)(F)F)nc5ccccc54)CC3)n2)cc1", "activity change, negative = inhibition": "inactive: -10.6%"}, {"smiles": "CSc1nc2ccc(NC(=O)COc3ccccc3F)cc2s1", "Potency": "inconclusive: 23.1 µM [activator, single point]"}, {"smiles": "COC(=O)c1ccc(C2C(Oc3ccccc3)C(=O)N2CCc2ccc(OC)c(OC)c2)cc1", "note": "(configuration not stated)", "activity change, negative = inhibition": "inactive: 1.97%"}, {"smiles": "CCOC(=O)c1c(NC(=O)COC(=O)c2ccccc2NC)sc(C(=O)N(C)C)c1C", "Potency": "active: 18.3 µM"}, {"smiles": "COc1ccc(C(=O)NCCCn2cccn2)cc1OC1CCN(C(C)=O)CC1", "activity change, negative = inhibition": "inactive: 2.35%"}, {"smiles": "Cn1c(=O)cc(OCC(=O)NCCCN2CCN(c3cccc(Cl)c3)CC2)c2ccccc21", "activity change, negative = inhibition": "inactive: -7.36%"}, {"smiles": "CC(C)c1ccc(NC(=O)CSc2n[nH]c(=O)n2Cc2ccco2)cc1", "Potency": "inconclusive: 29.1 µM [inhibitor, single point]"}, {"smiles": "Cc1ccc(C(=O)OCC(=O)N2C(C)CCCC2C)cc1S(=O)(=O)N1CCCCC1", "note": "(configuration not stated)", "Potency": "inconclusive: 35.5 µM [inhibitor, single point]"}, {"smiles": "CCOC(=O)C(=CNc1ccc(C(F)(F)F)cc1Cl)C(=O)OCC", "activity change, negative = inhibition": "inactive: 0%"}, {"smiles": "CCCCC1=NN2C(=N)CC(=O)N=C2S1", "activity change, negative = inhibition": "inactive: -8.57%"}, {"smiles": "Cc1ccc(SCC(=O)N2CCOCC2)cc1", "Potency": "inconclusive: 16.4 µM [activator, partial curve]"}, {"smiles": "CCN(CC)S(=O)(=O)c1cc(C(=O)OC(C)C(=O)NCc2ccco2)ccc1C", "note": "(configuration not stated)", "Potency": "inconclusive: 23.1 µM [inhibitor, single point]"}, {"smiles": "Cc1ccc(S(=O)(=O)N2CCCCC2)cc1C(=O)Nc1ccc2cn[nH]c2c1", "Potency": "inconclusive: 20.6 µM [inhibitor, partial curve, poor fit]"}, {"smiles": "COc1cc2c(=O)c(-c3ccc(O)cc3)coc2cc1OC1OC(CO)C(O)C(O)C1O", "note": "(configuration not stated)", "Potency": "inconclusive: 16.4 µM [activator, single point]"}, {"smiles": "CCCc1cc(=O)oc2c(C)c(OCC(=O)N3CCC(C(=O)O)(c4ccccc4)CC3)ccc12", "activity change, negative = inhibition": "inactive: 11%"}, {"smiles": "CNc1ccc(/C=C(\\C#N)C(=O)Nc2ccccn2)cc1[N+](=O)[O-]", "activity change, negative = inhibition": "inactive: 15.7%"}, {"smiles": "C/C(=N\\NC(=O)c1ccoc1C)c1cccnc1", "Potency": "inconclusive: 25.9 µM [activator, single point]"}, {"smiles": "CCc1ccc(OCC(=O)NCc2ccco2)c(Br)c1", "Potency": "inconclusive: 18.4 µM [activator, partial curve]"}, {"smiles": "OC1CCN(Cc2ccc(OCc3ccccc3)cc2)CC1", "Potency": "inconclusive: 35.5 µM [activator, partial curve, poor fit]"}, {"smiles": "C/C(N)=C(/C#N)C(=O)CSc1nc2ccc(C)cc2[nH]1", "Potency": "inconclusive: 3.98 µM [activator, partial curve]"}, {"smiles": "COc1ccc(CNc2nccs2)cc1", "Potency": "inconclusive: 29.1 µM [activator, partial curve, poor fit]"}, {"smiles": "CCC(C)Nc1nc(-c2ccc3c(c2)NC(=O)CO3)cs1", "note": "(configuration not stated)", "Potency": "inconclusive: 5.8 µM [activator, full curve, poor fit]"}, {"smiles": "Cc1ccc(NC(=O)C(=O)NCc2ccccn2)cc1", "Potency": "inconclusive: 18.3 µM [activator, partial curve]"}, {"smiles": "Cc1ccc(C)c(Cn2c3ccccc3c3cnn(CC(=O)NCCN4CCOCC4)c(=O)c32)c1", "activity change, negative = inhibition": "inactive: 1.84%"}, {"smiles": "O=C(Nc1ccc(N2CCOCC2)cc1)c1cnsn1", "Potency": "inconclusive: 0.0116 µM [activator, full curve, poor fit]"}, {"smiles": "CCCCCCn1cnc2c(c1=O)c1nc3ccccc3nc1n2/N=C/c1ccco1", "Potency": "active: 14.6 µM"}, {"smiles": "O=C(CSc1ncccc1C(=O)O)c1ccc2ccccc2c1", "Potency": "inconclusive: 11.6 µM [activator, partial curve]"}, {"smiles": "Cc1noc(C)c1S(=O)(=O)Nc1ccc2c(c1)CC(=O)N([C@H](C)CO)C[C@H](C)[C@@H](CN(C)CC1CC1)O2", "Potency": "inconclusive: 16.4 µM [activator, partial curve, poor fit]"}, {"smiles": "O=C(CCc1nc2ccccc2s1)c1ccccc1", "Potency": "inconclusive: 23.1 µM [activator, partial curve]"}, {"smiles": "Cc1ccc(N2C(=O)C3C4C=CC(CC4)C3C2=O)c([N+](=O)[O-])c1", "note": "(configuration not stated)", "activity change, negative = inhibition": "inactive: 1.75%"}, {"smiles": "O=C(Cc1c(F)cccc1Cl)OCC(=O)N1CCN(c2ccccc2)CC1", "activity change, negative = inhibition": "inactive: 7.38%"}, {"smiles": "CC(NC(=O)c1ccccc1Cl)C(=O)OCc1cn2cc(Cl)ccc2n1", "note": "(configuration not stated)", "activity change, negative = inhibition": "inactive: 16.6%"}, {"smiles": "CCOc1ccc(-c2csc3ncn(-c4ccc(OC)cc4)c(=O)c23)cc1", "Potency": "inconclusive: 29.1 µM [inhibitor, single point]"}, {"smiles": "CCCCNc1c(-c2ccc(-c3ccc(C(C)=O)cc3)c(OC)c2)nc2cnccn12", "Potency": "active: 9.2 µM"}, {"smiles": "CCOC(=O)CC(NS(=O)(=O)c1ccc2[nH]c(=O)sc2c1)c1ccc(C)cc1", "note": "(configuration not stated)", "activity change, negative = inhibition": "inactive: -15.5%"}, {"smiles": "O=C(CC1CC2CCC1C2)NC1CCCCCCC1", "note": "(configuration not stated)", "Potency": "inconclusive: 20.6 µM [activator, single point]"}, {"smiles": "O=C(c1cc2ccccc2o1)c1cccs1", "Potency": "inconclusive: 18.4 µM [activator, partial curve]"}, {"smiles": "CCOC(=O)N1CCN(C(=O)c2ccc3c(=O)n(CCc4ccc(OC)c(OC)c4)c(=O)[nH]c3c2)CC1", "activity change, negative = inhibition": "inactive: -21.5%"}, {"smiles": "N#Cc1cc(-c2ccc(Cl)cc2)cn(Cc2c(Cl)cccc2Cl)c1=O", "activity change, negative = inhibition": "inactive: -0.748%"}, {"smiles": "O=C(Nc1nccs1)c1ccc(NC(=O)c2ccco2)cc1", "Potency": "inconclusive: 5.8 µM [activator, full curve]"}, {"smiles": "COc1cccc(/C=C/C(=O)Nc2ccc3[nH]c(=O)[nH]c3c2)c1", "activity change, negative = inhibition": "inactive: -18.6%"}, {"smiles": "CCOc1cc(/C=N/Nc2nnc(C)n2N)ccc1OC(C)=O", "Potency": "inconclusive: 0.92 µM [inhibitor, partial curve, poor fit]"}, {"smiles": "O=C(COc1ccc(-c2nnco2)cc1)N1CCN(S(=O)(=O)c2ccc3ccccc3c2)CC1", "Potency": "inconclusive: 20.6 µM [inhibitor, partial curve]"}, {"smiles": "O=C(NCc1ccc2c(c1)OCO2)C1CCN(c2ccc(S(=O)(=O)N3CCCC3)cc2)CC1", "Potency": "inconclusive: 0.731 µM [inhibitor, full curve, poor fit]"}, {"smiles": "COc1ccc2c(c1)C(c1cccs1)=NNC(c1ccncc1)=N2", "Potency": "inconclusive: 29.1 µM [inhibitor, single point]"}, {"smiles": "Cc1cccc(NC(=S)N/N=C/c2ccc3c(c2)OCO3)c1", "activity change, negative = inhibition": "inactive: 8.54%"}, {"smiles": "CSCC[C@H](NC(=O)c1ccc(Cl)c(S(=O)(=O)N2CCCC2)c1)c1nc2ccccc2[nH]1", "Potency": "inconclusive: 16.4 µM [inhibitor, single point]"}, {"smiles": "COc1nccnc1NS(=O)(=O)c1ccc(NC(=S)NC(=O)c2ccc(F)cc2)cc1", "activity change, negative = inhibition": "inactive: -1.62%"}]}]}
